Laboratory results: PMC5996148
Some of the results follow. For some assays here: The source does not settle which construct or isoform was used.

Key:
Test in all cases: protein microarray (ProtoArray v5.0), streptavidin-Alexa Fluor 647
Details in all cases: 3'-biotin; 20 mM Tris (pH 7.5), 5 mM MgCl2, 100 mM KCl, 0.1% Tween-20, A/T-rich and random oligonucleotide blockers; temperature not stated; high values mean tight binding
ZNF655 (human) = test system: ZNF655 (human)
ZNF695 (human) = test system: ZNF695 (human)
ZNF718 (human) = test system: ZNF718 (human)
ZNF765 (human) = test system: ZNF765 (human)
ZRANB1 (human) = test system: ZRANB1 (human)
ZRF1 = target: T1, ZRF1 (UniProt Q99543)
T1 sequence: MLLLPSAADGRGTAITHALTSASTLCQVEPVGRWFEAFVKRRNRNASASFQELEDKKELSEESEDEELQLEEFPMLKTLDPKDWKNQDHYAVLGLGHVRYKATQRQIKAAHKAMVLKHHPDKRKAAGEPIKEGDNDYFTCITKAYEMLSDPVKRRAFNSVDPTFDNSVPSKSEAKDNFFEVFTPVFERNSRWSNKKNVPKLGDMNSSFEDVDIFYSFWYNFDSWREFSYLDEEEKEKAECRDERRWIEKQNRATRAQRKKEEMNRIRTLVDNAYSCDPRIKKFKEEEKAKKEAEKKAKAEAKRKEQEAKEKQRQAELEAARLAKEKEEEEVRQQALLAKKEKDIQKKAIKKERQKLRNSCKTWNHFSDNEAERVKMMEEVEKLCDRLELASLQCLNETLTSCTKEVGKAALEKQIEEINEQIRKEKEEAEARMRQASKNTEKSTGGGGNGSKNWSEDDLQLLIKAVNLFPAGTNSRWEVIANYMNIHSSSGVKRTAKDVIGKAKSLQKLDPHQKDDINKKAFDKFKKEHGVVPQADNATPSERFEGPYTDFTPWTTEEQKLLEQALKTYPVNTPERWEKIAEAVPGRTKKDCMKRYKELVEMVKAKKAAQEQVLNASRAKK

ZSCAN18 (human) = test system: ZSCAN18 (human)
ZW10 = target: T2, ZW10 (UniProt O43264)
T2 sequence: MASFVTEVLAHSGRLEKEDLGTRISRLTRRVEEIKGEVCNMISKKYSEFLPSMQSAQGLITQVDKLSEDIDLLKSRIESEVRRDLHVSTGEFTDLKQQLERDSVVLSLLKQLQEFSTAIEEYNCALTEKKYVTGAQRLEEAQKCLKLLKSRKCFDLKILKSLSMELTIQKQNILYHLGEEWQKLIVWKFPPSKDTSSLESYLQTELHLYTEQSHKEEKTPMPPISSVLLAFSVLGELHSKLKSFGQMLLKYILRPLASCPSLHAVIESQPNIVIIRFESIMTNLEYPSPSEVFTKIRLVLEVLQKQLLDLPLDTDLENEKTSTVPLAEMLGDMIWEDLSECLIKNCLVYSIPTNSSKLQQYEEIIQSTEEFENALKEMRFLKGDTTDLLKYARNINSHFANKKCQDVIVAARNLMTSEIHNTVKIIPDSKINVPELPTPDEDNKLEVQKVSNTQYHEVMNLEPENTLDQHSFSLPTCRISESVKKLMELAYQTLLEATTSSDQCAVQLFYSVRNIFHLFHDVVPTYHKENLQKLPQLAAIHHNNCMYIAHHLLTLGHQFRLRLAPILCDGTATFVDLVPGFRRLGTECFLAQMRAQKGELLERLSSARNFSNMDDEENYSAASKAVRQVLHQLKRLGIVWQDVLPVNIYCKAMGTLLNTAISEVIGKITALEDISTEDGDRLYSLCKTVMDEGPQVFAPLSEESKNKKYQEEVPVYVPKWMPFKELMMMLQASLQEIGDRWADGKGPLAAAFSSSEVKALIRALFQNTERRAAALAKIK

ZWINT = target: T3, ZWINT (UniProt O95229)
T3 sequence: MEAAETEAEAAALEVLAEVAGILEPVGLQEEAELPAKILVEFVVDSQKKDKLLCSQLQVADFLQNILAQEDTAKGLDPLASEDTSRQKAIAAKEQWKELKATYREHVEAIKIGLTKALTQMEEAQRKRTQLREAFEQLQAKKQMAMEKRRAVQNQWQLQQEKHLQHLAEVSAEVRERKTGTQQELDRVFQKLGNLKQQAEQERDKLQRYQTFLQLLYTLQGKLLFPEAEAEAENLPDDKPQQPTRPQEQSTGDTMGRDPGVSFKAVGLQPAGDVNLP

[1] = test system: Zinc finger BED domain-containing protein 1 (human)
[2] = test system: Zinc finger CCCH domain-containing protein 7A (human)
[3] = test system: Zinc finger FYVE domain-containing protein 27 (human)
[4] = test system: Zinc finger and SCAN domain-containing protein 2 (human)
[5] = test system: Zinc finger protein 654 (human)
[6] = test system: Zinc finger protein 655 (human)
[7] = test system: Zinc finger protein ZXDC (human)
[8] = test system: Zinc finger protein castor homolog 1 (human)
[9] = test system: Zinc transporter 7 (human)
[10] = test system: Zinc transporter ZIP1 (human)
[11] = test system: Zinc transporter ZIP11 (human)

For “GGGAGGCTGAGGCAGG [G4-1 biotinylated (PQS2)]”, the binding signal (ZNF655 (human)) was -0.316 z-score, the binding signal (ZNF695 (human)) was -0.319 z-score and the binding signal (ZNF718 (human)) was -0.337 z-score. For the same sequence, the binding signal (ZNF765 (human)) was -0.336 z-score, the binding signal (ZRANB1 (human)) was -0.321 z-score and the binding signal (ZRF1) was -0.342 z-score. For the same sequence, the binding signal (ZSCAN18 (human)) was -0.358 z-score, the binding signal (ZW10) was -0.329 z-score and the binding signal (ZWINT) was -0.35 z-score. It also gave a binding signal [1] of -0.354 z-score, a binding signal [2] of -0.323 z-score and a binding signal [3] of -0.248 z-score. It also gave a binding signal [4] of -0.348 z-score, a binding signal [5] of -0.28 z-score and a binding signal [6] of -0.362 z-score. It also gave a binding signal [7] of -0.321 z-score, a binding signal [8] of -0.354 z-score and a binding signal [9] of -0.34 z-score. The binding signal [10] was -0.325 z-score and the binding signal [11] was -0.328 z-score.
